# Data taken from paper PMC7774954, “Interactomic affinity profiling by holdup assay: Acetylation and distal residues impact the PDZome-binding specificity of PTEN phosphatase” (PLoS ONE, 2020).
# Chains of the proteins cited; added tags and fusions are not shown. Lines headed by an entry give the natural chain unless they say otherwise; changes in a name come on top.
# UniProt P60484: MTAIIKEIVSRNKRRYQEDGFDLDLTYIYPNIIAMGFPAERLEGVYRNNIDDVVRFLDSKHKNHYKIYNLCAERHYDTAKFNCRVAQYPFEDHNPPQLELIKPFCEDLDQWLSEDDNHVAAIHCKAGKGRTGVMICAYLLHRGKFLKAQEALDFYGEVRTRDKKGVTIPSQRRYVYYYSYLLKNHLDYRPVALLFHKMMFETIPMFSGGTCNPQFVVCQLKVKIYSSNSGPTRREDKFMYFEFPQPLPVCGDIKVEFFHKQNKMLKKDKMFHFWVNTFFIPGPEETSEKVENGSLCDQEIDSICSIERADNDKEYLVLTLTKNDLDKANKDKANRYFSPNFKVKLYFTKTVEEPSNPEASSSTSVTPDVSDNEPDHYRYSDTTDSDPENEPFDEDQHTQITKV
# No constants are given. Whether binding was seen depends on the method and setting. Some results given as binding are weak or reduced against the parent protein; the word gives no strength.
# B1: PDZD7-3 (domain or fragment, UniProt Q9H5P4 862-934)
# chain: TVTLSKMKQSLGISISGGIESKVQPMVKIEKIFPGGAAFLSGALQAGFELVAVDGENLEQVTHQRAVDTIRRA
# B2: INADL-9 (domain or fragment, UniProt Q8NI35 1533-1615)
# chain: PVDLQKKAGRGLGLSIVGKRNGSGVFISDIVKGGAADLDGRLIQGDQILSVNGEDMRNASQETVATILKCAQGLVQLEIGRLR
# B3: DLG3-1 (domain or fragment, UniProt Q92796 130-217)
# chain: EEIVLERGNSGLGFSIAGGIDNPHVPDDPGIFITKIIPGGAAAMDGRLGVNDCVLRVNEVDVSEVVHSRAVEALKEAGPVVRLVVRRR
# B4: PDZRN4-1 (domain or fragment, UniProt Q6ZMN7 224-314)
# chain: TIVLERENDTLGFNIIGGRPNQNNQEGTSTEGIYVSKILENGPADRADGLEIHDKIMEVNGKDLSKATHEEAVEAFRNAKEPIVVQVLRRT
# B5: USH1C-1 (domain or fragment, UniProt Q9Y6N9 87-169)
# chain: EVRLDRLHPEGLGLSVRGGLEFGCGLFISHLIKGGQADSVGLQVGDEIVRINGYSISSCTHEEVINLIRTKKTVSIKVRHIGL
# B6: PDZRN4-2 (domain or fragment, UniProt Q6ZMN7 402-486)
# chain: EVELCRVSSQEKLGLTVCYRTDDEEDTGIYVSEVDPNSIAAKDGRIREGDRILQINGEDVQNREEAVALLSNDECKRIVLLVARP
# B7: PDZD2-1 (domain or fragment, UniProt O15018 85-182)
# chain: LSFGNIPVFGDYGEKRRGGKKRKTHQGPVLDVGCIWVTELRKNSPAGKSGKVRLRDEILSLNGQLMVGVDVSGASYLAEQCWNGGFIYLIMLRRFKHK
# B8: NHERF4-1 (domain or fragment, UniProt Q86UT5 115-196)
# chain: FCLLSKEEGKSFGFHLQQELGRAGHVVCRVDPGTSAQRQGLQEGDRILAVNNDVVEHEDYAVVVRRIRASSPRVLLTVLARH
# B9: PDZD2-3 (domain or fragment, UniProt O15018 586-672)
# chain: IIGLYKEKGKGLGFSIAGGRDCIRGQMGIFVKTIFPNGSAAEDGRLKEGDEILDVNGIPIKGLTFQEAIHTFKQIRSGLFVLTVRTK
# B10: INADL-5 (domain or fragment, UniProt Q8NI35 686-772)
# chain: IVELVKDCKGLGFSILDYQDPLDPTRSVIVIRSLVADGVAERSGGLLPGDRLVSVNEYCLDNTSLAEAVEILKAVPPGLVHLGICKP
# B11: NHERF4-4 (domain or fragment, UniProt Q86UT5 467-548)
# chain: QCFLYPGPGGSYGFRLSCVASGPRLFISQVTPGGSAARAGLQVGDVILEVNGYPVGGQNDLERLQQLPEAEPPLCLKLAARS
# B12: DLG3-3 (domain or fragment, UniProt Q92796 379-465)
# chain: DFTREPRKIILHKGSTGLGFNIVGGEDGEGIFVSFILAGGPADLSGELRRGDRILSVNGVNLRNATHEQAAAALKRAGQSVTIVAQY
# B13: PDZD7-1 (domain or fragment, UniProt Q9H5P4 86-168)
# chain: SVRVEKSPAGRLGFSVRGGSEHGLGIFVSKVEEGSSAERAGLCVGDKITEVNGLSLESTTMGSAVKVLTSSSRLHMMVRRMGR
# B14: INADL-3 (domain or fragment, UniProt Q8NI35 365-453)
# chain: NVELVRKDGQSLGIRIVGYVGTSHTGEASGIYVKSIIPGSAAYHNGHIQVNDKIVAVDGVNIQGFANHDVVEVLRNAGQVVHLTLVRRK
# B15: PARD3B-1 (domain or fragment, UniProt Q8TEW8 201-289)
# chain: TRTVEISGEGGPLGIHVVPFFSSLSGRILGLFIRGIEDNSRSKREGLFHENECIVKINNVDLVDKTFAQAQDVFRQAMKSPSVLLHVLP
# B16: DFNB31-2 (domain or fragment, UniProt Q9P202 279-361)
# chain: KVNLVLGDGRSLGLTIRGGAEYGLGIYITGVDPGSEAEGSGLKVGDQILEVNGRSFLNILHDEAVRLLKSSRHLILTVKDVGR
# B17: INADL-4 (domain or fragment, UniProt Q8NI35 553-639)
# chain: DAELQKYSKLLPIHTLRLGVEVDSFDGHHYISSIVSGGPVDTLGLLQPEDELLEVNGMQLYGKSRREAVSFLKEVPPPFTLVCCRRL
# B18: TJP2-3 (domain or fragment, UniProt Q9UDY2 509-590)
# chain: NTKMVRFKKGDSVGLRLAGGNDVGIFVAGIQEGTSAEQEGLQEGDQILKVNTQDFRGLVREDAVLYLLEIPKGEMVTILAQS
# Molecular target: PTEN_Ac (human) (UniProt P60484)
# Experiment: holdup assay; biotinylated PBM peptide saturating streptavidin resin (biotin resin as reference); tag-PDZ at 4 uM in crude E. coli lysate, 15 min, filtration, free tag-PDZ by capillary electrophoresis; singlicate; BI cut-off 0.20; BI converted into KD with the peptide concentration back-calculated from FP; only the target purified
row,binding,Binder
1,binds,B1

# Molecular target: PTEN_KR (human) (UniProt P60484)
# Experiment: as above
row,binding,Binder
1,binds,B1

# Molecular target: PTEN_13 (human) (UniProt P60484)
# Experiment: as above
row,binding,Binder
1,binds,B1

# Molecular target: PTEN_11 (human) (UniProt P60484)
# Experiment: as above
row,binding,Binder
1,binds,B1

# Molecular target: PTEN_Ac (human) (UniProt P60484)
# Experiment: holdup assay; biotinylated PBM peptide on streptavidin resin, biotin resin as reference; tag-PDZ at 4 uM in crude E. coli lysate, 15 min, filtrate read by capillary electrophoresis; singlicate; BI converted into KD with the mean peptide concentration back-calculated from FP (34, 28, 25, 17 uM); LogKD is -log10 of KD in M, overall uncertainty ± 0.12; cells at the column's lower value are pairs without detected binding; only the target purified
row,binding,Binder
1,no binding (tested: lower value),B2
2,no binding (tested: lower value),B3
3,no binding (tested: lower value),B4
4,no binding (tested: lower value),B5
5,no binding (tested: lower value),B6
6,no binding (tested: lower value),B7
7,no binding (tested: lower value),B8
8,no binding (tested: lower value),B9
9,no binding (tested: lower value),B10
10,no binding (tested: lower value),B11
11,no binding (tested: lower value),B12
12,no binding (tested: lower value),B13
13,no binding (tested: lower value),B14
14,no binding (tested: lower value),B15
15,no binding (tested: lower value),B16
16,no binding (tested: lower value),B17
17,no binding (tested: lower value),B18

# Molecular target: PTEN_KR (human) (UniProt P60484)
# Experiment: as above
row,binding,Binder
1,no binding (tested: lower value),B2
2,no binding (tested: lower value),B3
3,no binding (tested: lower value),B4
4,no binding (tested: lower value),B5
5,no binding (tested: lower value),B6
6,no binding (tested: lower value),B7
7,no binding (tested: lower value),B8
8,no binding (tested: lower value),B9
9,no binding (tested: lower value),B10
10,no binding (tested: lower value),B11
11,no binding (tested: lower value),B12
12,no binding (tested: lower value),B13
13,no binding (tested: lower value),B14
14,no binding (tested: lower value),B15
15,no binding (tested: lower value),B16
16,no binding (tested: lower value),B17
17,no binding (tested: lower value),B18

# Molecular target: PTEN_13 (human) (UniProt P60484)
# Experiment: as above
row,binding,Binder
1,no binding (tested: lower value),B2
2,no binding (tested: lower value),B3
3,no binding (tested: lower value),B4
4,no binding (tested: lower value),B5
5,no binding (tested: lower value),B6
6,no binding (tested: lower value),B7
7,no binding (tested: lower value),B8
8,no binding (tested: lower value),B9
9,no binding (tested: lower value),B10
10,no binding (tested: lower value),B11
11,no binding (tested: lower value),B12
12,no binding (tested: lower value),B13
13,no binding (tested: lower value),B14
14,no binding (tested: lower value),B15
15,no binding (tested: lower value),B16
16,no binding (tested: lower value),B17
17,no binding (tested: lower value),B18

# Molecular target: PTEN_11 (human) (UniProt P60484)
# Experiment: as above
row,binding,Binder
1,no binding (tested: lower value),B2
2,no binding (tested: lower value),B3
3,no binding (tested: lower value),B4
4,no binding (tested: lower value),B5
5,no binding (tested: lower value),B6
6,no binding (tested: lower value),B7
7,no binding (tested: lower value),B8
8,no binding (tested: lower value),B9
9,no binding (tested: lower value),B10
10,no binding (tested: lower value),B11
11,no binding (tested: lower value),B12
12,no binding (tested: lower value),B13
13,no binding (tested: lower value),B14
14,no binding (tested: lower value),B15
15,no binding (tested: lower value),B16
16,no binding (tested: lower value),B17
17,no binding (tested: lower value),B18
